The results in this text go back to PubChem BioAssay AID250 (DTP/NCI, 2004).

The list is a part of this screen's results and no random one: it gathers tests that were run many times, whatever their T/C, doses with no T/C, and many T/C values between a quarter and a half above the control. Further doses and runs are listed elsewhere. T/C is the treated group as % of the vehicle group. Some doses have a count of surviving animals in place of a T/C: the source files T/C as zero there, which appears to mark a toxic dose or a test without result, not a measured value. Some survivor counts are full or nearly so, which does not show that the dose was tolerated: survival well below the control is almost never listed, so the zero probably covers shortened survival too. For some of these results: Counts of survivors are from the toxicity check (mostly the fifth day) where no day follows; animals may have died later. Schedules are NCI's codes, taken here to give the interval after Q, in days (D) or hours (H), and the number of doses after X. Some schedules carry Z or #; the key to these is not given. For some of these results: For survival time, the PubChem record calls one and a half times the control and up active, and a quarter to a half above the control has no call in these data; cut-offs in other NCI protocols can differ. Additions like (4×) give the number of equal values in this list. Some doses were run more than once; their values stand side by side, smallest first. Some T/C values carry the count of animals alive at the toxicity check (mostly the fifth day); without a count, all were alive then.

Assay [1] concerns BDF1 mice, L1210 leukemia sc, survival T/C. Briefly: NCI In Vivo Anticancer Drug Screen. Data for tumor model L1210 Leukemia (subcutaneous) in B6D2F1 (BDF1) mice. The note with it: higher T/C = longer survival. An outline of the steps: (§1)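 Antitumor activity is assessed in mice with transplanted tumors by comparing the treated group (T) with the vehicle control group (C).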
Assay [2] deals with BDF1 mice, L1210 leukemia sc. The assay is described as above. The conditions noted are these: higher T/C = longer survival. In a few lines: as §1
Where [3] appears, read: T/C endpoint: median survival time, dose: 23.0 mg/kg/injection, schedule: Q01DX Z (sc), vehicle: saline.
[4] abbreviates: T/C endpoint: median survival time, dose: 500.0 mg/kg/injection, schedule: Q01DX Z (sc), vehicle: methylcellulose (MC).
[5] abbreviates: T/C endpoint: median survival time, dose: 2.4 mg/kg/injection, schedule: Q01DX Z (sc), vehicle: water.

With `C1OC1CN1CCC(C2CCN(CC3CO3)CC2)CC1` (stereo unspecified), the survivor count in assay [1] (T/C endpoint: median survival time, dose: 8.4 mg/kg/injection, schedule: Q01DX Z (sc), vehicle: methylcellulose (MC)) is 6 of 10; in assay [1] (T/C endpoint: median survival time, dose: 8.4 mg/kg/injection, schedule: Q03DX Z (sc), vehicle: methylcellulose (MC)), 5 of 10; in assay [1] (T/C endpoint: median survival time, dose: 14.0 mg/kg/injection, schedule: Q03DX Z (sc), vehicle: methylcellulose (MC)), 5 of 10; in assay [1] (T/C endpoint: median survival time, dose: 23.0 mg/kg/injection, schedule: Q03DX Z (sc), vehicle: methylcellulose (MC)), 5 of 10; in assay [1] (T/C endpoint: median survival time, dose: 39.0 mg/kg/injection, schedule: Q01DX Z (sc), vehicle: methylcellulose (MC)), 3 of 10; in assay [1] (T/C endpoint: median survival time, dose: 39.0 mg/kg/injection, schedule: Q03DX Z (sc), vehicle: methylcellulose (MC)) it was 5 of 10. Also, the survivor count in assay [1] (T/C endpoint: median survival time, dose: 300.0 mg/kg/injection, schedule: Q03DX Z (sc), vehicle: methylcellulose (MC)) is reported as 0 of 10. The T/C in assay [2] (T/C endpoint: median survival time, dose: 65.0 mg/kg/injection, schedule: Q01DX Z (sc), vehicle: methylcellulose (MC)) was 127 % of control [8 of 10 alive]; in assay [2] (T/C endpoint: median survival time, dose: 108.0 mg/kg/injection, schedule: Q03DX Z (sc), vehicle: methylcellulose (MC)), 136 % of control.
Consider `COC12C(COC(N)=O)C3=C(C(=O)C(C)=C(N)C3=O)N1CC1C2N1C` (stereo unspecified), for which the survivor count in assay [1] (T/C endpoint: median survival time, dose: 32.0 mg/kg/injection, schedule: Q01DX009 (ip), vehicle: saline) is 10 of 10. The T/C is 130 % of control in assay [2] (T/C endpoint: median survival time, dose: 14.0 mg/kg/injection, schedule: Q01DX Z (sc), vehicle: saline); 125 % of control in assay [2] (T/C endpoint: median survival time, dose: 16.0 mg/kg/injection, schedule: Q01DX009 (ip), vehicle: saline); 134 % of control in assay [2] (T/C endpoint: median survival time, dose: 16.0 mg/kg/injection, schedule: Q01DX009 (sc), vehicle: saline); 130 % of control in assay [2] (setting [3]).
Consider `CS(=O)(=O)Nc1ccc(Nc2c3ccccc3nc3cc([N+](=O)[O-])ccc23)cc1`, for which, in assay [1] (T/C endpoint: mean survival time, dose: 10.0 mg/kg/injection, schedule: Q01DX009 (ip), vehicle: Klucel (hydroxypropylcellulose) (HPC)), the survivor count is reported as 9 of 10. Further, the T/C in assay [2] (T/C endpoint: mean survival time, dose: 10.0 mg/kg/injection, schedule: Q01DX009 (sc), vehicle: Klucel (hydroxypropylcellulose) (HPC)) is 140 % of control.
For `C[C@]12CCC(=O)C=C1CC[C@H]1[C@@H]3CC[C@](O)(C(=O)CO)[C@@]3(C)C[C@H](O)[C@@]12F`, in assay [1] (setting [4]), the survivor count was 6 of 10. For the same compound, the T/C in assay [2] (T/C endpoint: median survival time, dose: 108.0 mg/kg/injection, schedule: Q01DX Z (sc), vehicle: methylcellulose (MC)) is 125 % of control; in assay [2] (T/C endpoint: median survival time, dose: 180.0 mg/kg/injection, schedule: Q01DX Z (sc), vehicle: methylcellulose (MC)), 125 % of control; in assay [2] (setting [4]), 125 % of control.
`O=C(Nc1ccc(S(=O)(=O)O)cc1)c1ccc([N+](=O)[O-])cc1`: the survivor count in assay [1] (T/C endpoint: median survival time, dose: 1.08 mg/kg/injection, schedule: Q01DX Z (sc), vehicle: water) was 5 of 10; in assay [1] (T/C endpoint: median survival time, dose: 1.8 mg/kg/injection, schedule: Q01DX Z (sc), vehicle: water) it was 6 of 10; in assay [1] (T/C endpoint: median survival time, dose: 3.0 mg/kg/injection, schedule: Q01DX Z (sc), vehicle: water), 6 of 10. Also, the T/C in assay [2] (T/C endpoint: median survival time, dose: 5.0 mg/kg/injection, schedule: Q01DX Z (sc), vehicle: water) was 133 % of control [7 of 10 alive]; in assay [2] (T/C endpoint: median survival time, dose: 39.0 mg/kg/injection, schedule: Q01DX Z (sc), vehicle: water) it was 133 % of control [9 of 10 alive]; in assay [2] (T/C endpoint: median survival time, dose: 65.0 mg/kg/injection, schedule: Q01DX Z (sc), vehicle: water) it was 133 % of control [9 of 10 alive].
As to `CC(=O)NC(CCC(=O)C=[N+]=N)C(=O)O` (stereo unspecified), in assay [1] (T/C endpoint: median survival time, dose: 0.19 mg/kg/injection, schedule: Q01DX Z (sc), vehicle: water), the survivor count is 5 of 10. The T/C in assay [2] (T/C endpoint: median survival time, dose: 0.31 mg/kg/injection, schedule: Q01DX Z (sc), vehicle: water) was 136 % of control; in assay [2] (T/C endpoint: median survival time, dose: 0.47 mg/kg/injection, schedule: Q01DX Z (sc), vehicle: water), 140 % of control; in assay [2] (T/C endpoint: median survival time, dose: 0.52 mg/kg/injection, schedule: Q01DX Z (sc), vehicle: water) it was 140 % of control; in assay [2] (T/C endpoint: median survival time, dose: 0.52 mg/kg/injection, schedule: Q#A X Z (sc), vehicle: water), 131 % of control [9 of 10 alive]; in assay [2] (T/C endpoint: median survival time, dose: 0.67 mg/kg/injection, schedule: Q01DX Z (sc), vehicle: water) it was 145 % of control; in assay [2] (T/C endpoint: median survival time, dose: 0.78 mg/kg/injection, schedule: Q01DX Z (sc), vehicle: water), 130 % of control. Also, the T/C in assay [2] (T/C endpoint: median survival time, dose: 0.86 mg/kg/injection, schedule: Q01DX Z (sc), vehicle: water) was 136 and 145 % of control; in assay [2] (T/C endpoint: median survival time, dose: 0.86 mg/kg/injection, schedule: Q#A X Z (sc), vehicle: water), 131 % of control [9 of 10 alive]; in assay [2] (T/C endpoint: median survival time, dose: 1.12 mg/kg/injection, schedule: Q01DX Z (sc), vehicle: water) it was 133 % of control; in assay [2] (T/C endpoint: median survival time, dose: 1.3 mg/kg/injection, schedule: Q01DX Z (sc), vehicle: water), 145 % of control; in assay [2] (T/C endpoint: median survival time, dose: 1.44 mg/kg/injection, schedule: Q01DX Z (sc), vehicle: water), 131 and 136 % of control; in assay [2] (T/C endpoint: median survival time, dose: 1.87 mg/kg/injection, schedule: Q01DX Z (sc), vehicle: water) it was 125 % of control. Moreover, the T/C in assay [2] (setting [5]) is 127, 136, 140 % of control [8 of 10 alive]; in assay [2] (T/C endpoint: median survival time, dose: 2.4 mg/kg/injection, schedule: Q02DX Z (sc), vehicle: water), 127 % of control; in assay [2] (T/C endpoint: median survival time, dose: 3.6 mg/kg/injection, schedule: Q01DX Z (sc), vehicle: water), 130 % of control; in assay [2] (T/C endpoint: median survival time, dose: 6.0 mg/kg/injection, schedule: Q01DX Z (sc), vehicle: water), 130 % of control; in assay [2] (T/C endpoint: median survival time, dose: 130.0 mg/kg/injection, schedule: Q01DX001 (sc), vehicle: water), 125 % of control; in assay [2] (T/C endpoint: median survival time, dose: 130.0 mg/kg/injection, schedule: Q## X Z (sc), vehicle: water), 125 and 140 % of control. Also, the T/C is 125 and 130 % of control in assay [2] (T/C endpoint: median survival time, dose: 216.0 mg/kg/injection, schedule: Q01DX001 (sc), vehicle: water); 130 % of control in assay [2] (T/C endpoint: median survival time, dose: 216.0 mg/kg/injection, schedule: Q07DX Z (sc), vehicle: water); 130 % of control (2×) in assay [2] (T/C endpoint: median survival time, dose: 360.0 mg/kg/injection, schedule: Q01DX001 (sc), vehicle: water); 135 % of control in assay [2] (T/C endpoint: median survival time, dose: 360.0 mg/kg/injection, schedule: Q## X Z (sc), vehicle: water); 130 % of control in assay [2] (T/C endpoint: median survival time, dose: 600.0 mg/kg/injection, schedule: Q01DX001 (sc), vehicle: water); 125 % of control in assay [2] (T/C endpoint: median survival time, dose: 600.0 mg/kg/injection, schedule: Q07DX Z (sc), vehicle: water).
For the compound `Cc1cccc2c(Nc3ccc(NS(C)(=O)=O)cc3)c3ccc([N+](=O)[O-])cc3nc12`, the survivor count in assay [1] (T/C endpoint: mean survival time, dose: 40.0 mg/kg/injection, schedule: Q01DX009 (ip), vehicle: saline) is 10 of 10; in assay [1] (T/C endpoint: mean survival time, dose: 80.0 mg/kg/injection, schedule: Q01DX009 (ip), vehicle: saline), 10 of 10. In addition, the T/C in assay [2] (T/C endpoint: mean survival time, dose: 20.0 mg/kg/injection, schedule: Q01DX009 (ip), vehicle: saline) is 129 % of control.
On to `N=[N+]=CC(=O)OCC(N)C(=O)O` (stereo unspecified), for which the survivor count in assay [1] (setting [5]) was 6 of 10; in assay [1] (T/C endpoint: median survival time, dose: 18.7 mg/kg/injection, schedule: Q01DX Z (sc), vehicle: water), 5 of 10. In addition, the T/C in assay [2] (setting [3]) is 125 % of control; in assay [2] (T/C endpoint: median survival time, dose: 32.0 mg/kg/injection, schedule: Q01DX Z (sc), vehicle: water) it was 136 % of control; in assay [2] (T/C endpoint: median survival time, dose: 39.0 mg/kg/injection, schedule: Q01DX Z (sc), vehicle: saline), 125 % of control; in assay [2] (T/C endpoint: median survival time, dose: 51.8 mg/kg/injection, schedule: Q01DX Z (sc), vehicle: water), 135 % of control [9 of 10 alive]; in assay [2] (T/C endpoint: median survival time, dose: 64.0 mg/kg/injection, schedule: Q02DX Z (sc), vehicle: water) it was 127 % of control.
